Experimental data published in patent publication CN115433280A.
No constants are given. Whether binding was seen depends on the method and setting. Some binding calls cover weakened binding; strength is not graded here.

Protein sequences, listed by entry. Tags and fused reporters are not part of them. Residues count along the entry.
UniProt P20273, residues 20-847: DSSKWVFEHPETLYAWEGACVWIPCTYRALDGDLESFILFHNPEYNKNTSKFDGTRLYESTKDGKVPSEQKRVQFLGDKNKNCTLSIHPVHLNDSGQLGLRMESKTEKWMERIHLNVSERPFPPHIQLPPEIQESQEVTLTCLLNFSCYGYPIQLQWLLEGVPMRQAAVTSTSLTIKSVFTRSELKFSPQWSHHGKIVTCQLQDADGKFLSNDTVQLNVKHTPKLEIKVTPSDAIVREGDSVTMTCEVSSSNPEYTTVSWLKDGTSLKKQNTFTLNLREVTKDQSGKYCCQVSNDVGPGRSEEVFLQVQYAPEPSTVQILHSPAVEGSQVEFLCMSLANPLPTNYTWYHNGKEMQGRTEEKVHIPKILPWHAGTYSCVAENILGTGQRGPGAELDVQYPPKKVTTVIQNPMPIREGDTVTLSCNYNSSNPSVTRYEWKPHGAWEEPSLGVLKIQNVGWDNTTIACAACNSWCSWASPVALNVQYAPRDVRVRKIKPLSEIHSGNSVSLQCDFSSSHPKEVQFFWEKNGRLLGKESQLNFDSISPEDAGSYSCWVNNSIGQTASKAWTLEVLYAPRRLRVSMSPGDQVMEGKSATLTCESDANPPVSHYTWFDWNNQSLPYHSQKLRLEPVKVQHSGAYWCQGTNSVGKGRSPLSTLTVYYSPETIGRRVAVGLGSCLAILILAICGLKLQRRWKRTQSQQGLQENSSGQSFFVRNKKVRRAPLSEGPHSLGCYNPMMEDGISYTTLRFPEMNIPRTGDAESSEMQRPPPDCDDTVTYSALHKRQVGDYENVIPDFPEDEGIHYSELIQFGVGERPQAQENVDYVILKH

B1: 命名为10F9的兔重组单克隆抗体 (antibody, V domains shown)
VH: QSVEESGGRLVTPGTPLTLTCTVSGFSLNTDAMIWVRQAPGKGLEYIGIIGSSGSAFFASWAKGRFTISKTSTTVDLTIISPTTEDTATYFCARFTGYGGYGRGGMDPWGPGTLVTVSS
VL: AQVLTQTPSSVSAAVGGTVTINCQSSESVHNNNWLSWYQQKPGQPPKLLIYKASTLASGVPSRFSGSGSGTQFTLTISGVQCDDAATYYCQATYNSGGWYVAFGGGTEVVVK
B2: 命名为8B5的兔重组单克隆抗体 (antibody, V domains shown)
VH: QEQLKESGGGLVTPGGSLTLTCTVSGIDLSSYAMGWVRQAPGKGLEYIGIVTYAGSAYYASWARGRFTISKTSTTVDLKITSPTTEDTATYFCARGVDNFYTLPDAFDPWGPGTLVTVS
VL: AYDMTQTPASVSAAVGGTVTINCQASQSISRFLSWYQQKPGQRPKLLIYRASTLASGVSSRFEGSGSGTQFTLTISGVECADAATYYCQQGDTYINVDNPFGGGTEVVVK
B3: 命名为9A3的兔重组单克隆抗体 (antibody, V domains shown)
V domain 1: QSVEESGGRLVTPGTPLTLTCTVSGIDLSSYWMNWVRQAPGKGLEWIGIIWSDDNTYYANWAKGRFTISKTSSTTVDLTITSPTTEDTATYFCARGYVGDIWGPGTLITVS
V domain 2: ALVMTQTPSSVDVAVGGTVTIRCQASQNIYSGLAWYQQKPGQPPKLLIYGASNLASGVSSRFKGSGSGTQFTLTISGVECADAATYYCQQTYTSDNVDNPFGGGTEVVVE

These binders were tested against CD22全长蛋白 (293细胞转染) (UniProt P20273) (assay: flow cytometry on 293 cells transfected with full-length CD22).

binding, binds:
B1, B2, B3
